# Some of the results follow. The data scatter; read single values as rough.
# Biological target: ATP1A1 C211 (UniProt P05023)
# Assay: log2 mean competition ratio of IA-DTB cysteine labelling (DMSO/compound) (log2 ratio); higher = stronger cysteine engagement by compound
# Settings: 50 µM; treatment time: 4 h; cell line lysate: HEK293T
# Experimental: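 IA-DTB competitive cysteine chemoproteomics in HEK293T RIPA lysate. Lysates were treated with compound 29 or 30 at 50 or 200 µM for 4 h, then IA-DTB (500 µM, 1 h), trypsin-digested, NeutrAvidin-enriched and analysed by diaPASEF. Competition ratio = intensity DMSO / intensity compound (n=4 treated, n=64 DMSO); binding: mean log2 CR ≥ 1 and p ≤ 0.05 plus QC filters. Target is the cysteine site.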
row,SMILES,log2 mean competition ratio
1,O=C(CCl)N[C@@H]1CCCc2ccccc21,0.415
2,O=C(CCl)N[C@H]1CCCc2ccccc21,0.598

# Same assay, conditions: 200 µM; treatment time: 4 h; cell line lysate: HEK293T
row,SMILES,log2 mean competition ratio
1,O=C(CCl)N[C@@H]1CCCc2ccccc21,-0.14
2,O=C(CCl)N[C@H]1CCCc2ccccc21,-0.0618

# From the supplement of paper PMC11732987, “Enantioselective OTUD7B fragment discovery through chemoproteomics screening and high-throughput optimisation” (Communications Chemistry, 2025)
